From patent publication US10039756B2, “Reducing memory loss in mammals suffering from alzheimer's disease” (The Penn State Research Foundation, priority 2013, dated 2018)

Test system: 5xFAD mice
Test: Y-maze spontaneous alternation task
Type: in vivo, mouse
Settings: repeated injection for one week
Protocol: L-655,708 was dissolved at 1 mg/mL in DMSO, and frozen in storage aliquots. The working solution was diluted 10 times in normal saline solution. […] The last injection was administrated 30 minutes before behavioral test.
Spontaneous alternation performance was tested as described elsewhere (Oakley et al., J. Neurosci., 26(40):10129-10140 (2006)). […] It allows the assessment of hippocampus-dependent spatial working memory. Each mouse was placed in the center of a symmetrical Y-maze and was allowed to explore freely through the maze during an 8 minute session. The first two minutes were not included for data analysis because mice were exploring new environment. The total number and the sequence of arm entries in the last 6 minutes were recorded and analyzed. Arm entry was defined as the hind paws of the mice had been completely placed in the arm. Analysis was done blind. The percentage of alternation is the number of triads containing entries into all three arms divided by the maximum possible alternations (the total number of arms entered minus 2)×100.
A behavioral analysis was conducted to test the effect of enhanced tonic inhibition on the cognitive function of 5xFAD animals. […] Therefore, it was concluded that the abnormal tonic inhibition in DG is an important contributing factor toward the learning and memory deficit in AD.

SMILES | total number of arm entries, vs WT and 5xFAD groups
CCOC(=O)c1ncn2c1C1CCCN1C(=O)c1cc(OC)ccc1-2 [L-655,708, 11,12,13,13a-tetrahydro-7-methoxy-9-oxo-9H-imidazo[1,5-a]pyrrolo[2,1-c][1,4]benzodiaz-epine-1-carboxylic acid, ethyl ester] | not different
COc1ccc(C(OCCN2CCC[C@H](C(=O)O)C2)(c2ccc(OC)cc2)c2ccc(OC)cc2)cc1 [SNAP-5114, (S)-1-[2-[tris(4-methoxyphenyl)methoxy]ethyl]-3-piperidinecarboxylic acid] | not different
